{"source": "PubChem BioAssay AID504764 | Drosophila RNAi Screening Center, 2011", "aim": "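Genome-wide screen for regulators of Notch-driven gene expression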 (primary screen)", "cell system": "Drosophila Kc167 cells", "reagent": "long dsRNA against Drosophila genes", "duration": "about 5 days (4 days dsRNA, then 24 h after transfection)", "conditions": "transfection of constitutively active membrane-tethered Notch lacking the extracellular domain, read 24 h later", "detection": "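Light from a Notch-responsive E(spl)m3 luciferase reporter under active Notch, with control-promoter and no-Notch reporter wells to normalise; raw counts from paired wells a and b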", "reading the numbers": "induced reporter light, run 1, well a and induced reporter light, run 1, well b: higher = more light from the Notch target reporter with active Notch; control promoter light, run 1, well a and control promoter light, run 1, well b: higher = more light from the viral control promoter (cell number, transfection, viability); uninduced reporter light, run 1, well a: higher = more light from the Notch target reporter without active Notch", "call rule": "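Hit if the duplicate-averaged log2 ratio of induced to control-promoter light gives a plate-wise z beyond ±2, or induced to uninduced beyond ±1.8; weak-control or discordant-duplicate wells dropped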", "meaning of the calls": "active = modifier hit (raised or lowered Notch signal); inactive = not a hit", "note": "The deposit covers about 22,000 reagents; below is an unselected part of those that have a named target and a result. Over the whole deposit, 403 (1.9%) got an active call. 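Unnormalised raw counts per well; ratio z-scores behind the hit calls and whether each hit raises or lowers signal are not deposited.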 Unmarked entries are inactive. Not stated in the record: the amount of reagent."}
{"gene": "Acsx2 (GeneID 42353)", "PubChem SID": "SID104194100", "induced reporter light, run 1, well a": 1.92e5, "induced reporter light, run 1, well b": 1.82e5, "control promoter light, run 1, well a": 2.11e5, "control promoter light, run 1, well b": 1.99e5, "uninduced reporter light, run 1, well a": 12530}
{"gene": "Takl1 (GeneID 318725)", "PubChem SID": "SID104193235", "induced reporter light, run 1, well a": 83760, "induced reporter light, run 1, well b": 62795, "control promoter light, run 1, well a": 76145, "control promoter light, run 1, well b": 67050, "uninduced reporter light, run 1, well a": 7420}
{"gene": "Tgt (GeneID 33307)", "PubChem SID": "SID104180464", "induced reporter light, run 1, well a": 72325, "induced reporter light, run 1, well b": 76165, "control promoter light, run 1, well a": 77405, "control promoter light, run 1, well b": 69965, "uninduced reporter light, run 1, well a": 5010}
{"gene": "Vmat (GeneID 3346192)", "PubChem SID": "SID104186753", "induced reporter light, run 1, well a": 1.78e5, "induced reporter light, run 1, well b": 1.80e5, "control promoter light, run 1, well a": 1.72e5, "control promoter light, run 1, well b": 1.55e5, "uninduced reporter light, run 1, well a": 13545}
{"gene": "Vmat (GeneID 3346192)", "PubChem SID": "SID104186754", "induced reporter light, run 1, well a": 91450, "induced reporter light, run 1, well b": 1.03e5, "control promoter light, run 1, well a": 1.04e5, "control promoter light, run 1, well b": 1.03e5, "uninduced reporter light, run 1, well a": 9010}
{"gene": "CG18609 (GeneID 37158)", "PubChem SID": "SID104186567", "induced reporter light, run 1, well a": 1.21e5, "induced reporter light, run 1, well b": 1.04e5, "control promoter light, run 1, well a": 1.19e5, "control promoter light, run 1, well b": 1.35e5, "uninduced reporter light, run 1, well a": 8775}
{"gene": "CG14297 (GeneID 42260)", "PubChem SID": "SID104194568", "induced reporter light, run 1, well a": 1.83e5, "induced reporter light, run 1, well b": 1.63e5, "control promoter light, run 1, well a": 1.83e5, "control promoter light, run 1, well b": 1.69e5, "uninduced reporter light, run 1, well a": 11215}
{"gene": "CG17122 (GeneID 40226)", "PubChem SID": "SID104190037", "induced reporter light, run 1, well a": 1.43e5, "induced reporter light, run 1, well b": 1.15e5, "control promoter light, run 1, well a": 1.37e5, "control promoter light, run 1, well b": 1.35e5, "uninduced reporter light, run 1, well a": 7165}
{"gene": "Def (GeneID 36047)", "PubChem SID": "SID104187190", "induced reporter light, run 1, well a": 1.72e5, "induced reporter light, run 1, well b": 1.59e5, "control promoter light, run 1, well a": 1.93e5, "control promoter light, run 1, well b": 2.15e5, "uninduced reporter light, run 1, well a": 13415}

Part of the list above, showing only “uninduced reporter light, run 1, well a”.
Acsx2 (GeneID 42353) [SID104194100]	12530
Takl1 (GeneID 318725) [SID104193235]	7420
Tgt (GeneID 33307) [SID104180464]	5010

Next records:
{"gene": "CG31391 (GeneID 41280)", "PubChem SID": "SID104195839", "induced reporter light, run 1, well a": 85355, "induced reporter light, run 1, well b": 88365, "control promoter light, run 1, well a": 29885, "control promoter light, run 1, well b": 28020, "uninduced reporter light, run 1, well a": 7430}
{"gene": "TppII (GeneID 36444)", "PubChem SID": "SID104187357", "induced reporter light, run 1, well a": 1.64e5, "induced reporter light, run 1, well b": 1.85e5, "control promoter light, run 1, well a": 1.51e5, "control promoter light, run 1, well b": 1.53e5, "uninduced reporter light, run 1, well a": 14360}
{"gene": "CG7298 (GeneID 40210)", "PubChem SID": "SID104190594", "induced reporter light, run 1, well a": 1.21e5, "induced reporter light, run 1, well b": 1.31e5, "control promoter light, run 1, well a": 71175, "control promoter light, run 1, well b": 87050, "uninduced reporter light, run 1, well a": 9035}
{"gene": "cav (GeneID 42881)", "PubChem SID": "SID104195787", "induced reporter light, run 1, well a": 1.49e5, "induced reporter light, run 1, well b": 1.51e5, "control promoter light, run 1, well a": 1.94e5, "control promoter light, run 1, well b": 1.97e5, "uninduced reporter light, run 1, well a": 15905}
{"gene": "CG15873 (GeneID 37898)", "PubChem SID": "SID104184069", "induced reporter light, run 1, well a": 1.69e5, "induced reporter light, run 1, well b": 1.95e5, "control promoter light, run 1, well a": 1.86e5, "control promoter light, run 1, well b": 1.71e5, "uninduced reporter light, run 1, well a": 10770}
{"gene": "Ran (GeneID 44072)", "PubChem SID": "SID104200156", "induced reporter light, run 1, well a": 29235, "induced reporter light, run 1, well b": 31720, "control promoter light, run 1, well a": 48875, "control promoter light, run 1, well b": 42490, "uninduced reporter light, run 1, well a": 1615}
{"gene": "CG11149 (GeneID 33800)", "PubChem SID": "SID104181922", "induced reporter light, run 1, well a": "1.65e5 (active)", "induced reporter light, run 1, well b": 1.11e5, "control promoter light, run 1, well a": 1.82e5, "control promoter light, run 1, well b": 1.74e5, "uninduced reporter light, run 1, well a": 11095}
{"gene": "dgt5 (GeneID 36364)", "PubChem SID": "SID104187072", "induced reporter light, run 1, well a": 1.89e5, "induced reporter light, run 1, well b": 1.68e5, "control promoter light, run 1, well a": 1.59e5, "control promoter light, run 1, well b": 1.77e5, "uninduced reporter light, run 1, well a": 16885}
{"gene": "Su(z)12 (GeneID 48071)", "PubChem SID": "SID104191085", "induced reporter light, run 1, well a": 1.23e5, "induced reporter light, run 1, well b": 96160, "control promoter light, run 1, well a": 88295, "control promoter light, run 1, well b": 67515, "uninduced reporter light, run 1, well a": 8832}
